One substance from paper PMC5116814, “Potent, Reversible, and Specific Chemical Inhibitors of Eukaryotic Ribosome Biogenesis” (Cell, 2016) can be followed below.

Protein sequences, listed by entry. Tags and fused reporters are not part of them.
UniProt O94248: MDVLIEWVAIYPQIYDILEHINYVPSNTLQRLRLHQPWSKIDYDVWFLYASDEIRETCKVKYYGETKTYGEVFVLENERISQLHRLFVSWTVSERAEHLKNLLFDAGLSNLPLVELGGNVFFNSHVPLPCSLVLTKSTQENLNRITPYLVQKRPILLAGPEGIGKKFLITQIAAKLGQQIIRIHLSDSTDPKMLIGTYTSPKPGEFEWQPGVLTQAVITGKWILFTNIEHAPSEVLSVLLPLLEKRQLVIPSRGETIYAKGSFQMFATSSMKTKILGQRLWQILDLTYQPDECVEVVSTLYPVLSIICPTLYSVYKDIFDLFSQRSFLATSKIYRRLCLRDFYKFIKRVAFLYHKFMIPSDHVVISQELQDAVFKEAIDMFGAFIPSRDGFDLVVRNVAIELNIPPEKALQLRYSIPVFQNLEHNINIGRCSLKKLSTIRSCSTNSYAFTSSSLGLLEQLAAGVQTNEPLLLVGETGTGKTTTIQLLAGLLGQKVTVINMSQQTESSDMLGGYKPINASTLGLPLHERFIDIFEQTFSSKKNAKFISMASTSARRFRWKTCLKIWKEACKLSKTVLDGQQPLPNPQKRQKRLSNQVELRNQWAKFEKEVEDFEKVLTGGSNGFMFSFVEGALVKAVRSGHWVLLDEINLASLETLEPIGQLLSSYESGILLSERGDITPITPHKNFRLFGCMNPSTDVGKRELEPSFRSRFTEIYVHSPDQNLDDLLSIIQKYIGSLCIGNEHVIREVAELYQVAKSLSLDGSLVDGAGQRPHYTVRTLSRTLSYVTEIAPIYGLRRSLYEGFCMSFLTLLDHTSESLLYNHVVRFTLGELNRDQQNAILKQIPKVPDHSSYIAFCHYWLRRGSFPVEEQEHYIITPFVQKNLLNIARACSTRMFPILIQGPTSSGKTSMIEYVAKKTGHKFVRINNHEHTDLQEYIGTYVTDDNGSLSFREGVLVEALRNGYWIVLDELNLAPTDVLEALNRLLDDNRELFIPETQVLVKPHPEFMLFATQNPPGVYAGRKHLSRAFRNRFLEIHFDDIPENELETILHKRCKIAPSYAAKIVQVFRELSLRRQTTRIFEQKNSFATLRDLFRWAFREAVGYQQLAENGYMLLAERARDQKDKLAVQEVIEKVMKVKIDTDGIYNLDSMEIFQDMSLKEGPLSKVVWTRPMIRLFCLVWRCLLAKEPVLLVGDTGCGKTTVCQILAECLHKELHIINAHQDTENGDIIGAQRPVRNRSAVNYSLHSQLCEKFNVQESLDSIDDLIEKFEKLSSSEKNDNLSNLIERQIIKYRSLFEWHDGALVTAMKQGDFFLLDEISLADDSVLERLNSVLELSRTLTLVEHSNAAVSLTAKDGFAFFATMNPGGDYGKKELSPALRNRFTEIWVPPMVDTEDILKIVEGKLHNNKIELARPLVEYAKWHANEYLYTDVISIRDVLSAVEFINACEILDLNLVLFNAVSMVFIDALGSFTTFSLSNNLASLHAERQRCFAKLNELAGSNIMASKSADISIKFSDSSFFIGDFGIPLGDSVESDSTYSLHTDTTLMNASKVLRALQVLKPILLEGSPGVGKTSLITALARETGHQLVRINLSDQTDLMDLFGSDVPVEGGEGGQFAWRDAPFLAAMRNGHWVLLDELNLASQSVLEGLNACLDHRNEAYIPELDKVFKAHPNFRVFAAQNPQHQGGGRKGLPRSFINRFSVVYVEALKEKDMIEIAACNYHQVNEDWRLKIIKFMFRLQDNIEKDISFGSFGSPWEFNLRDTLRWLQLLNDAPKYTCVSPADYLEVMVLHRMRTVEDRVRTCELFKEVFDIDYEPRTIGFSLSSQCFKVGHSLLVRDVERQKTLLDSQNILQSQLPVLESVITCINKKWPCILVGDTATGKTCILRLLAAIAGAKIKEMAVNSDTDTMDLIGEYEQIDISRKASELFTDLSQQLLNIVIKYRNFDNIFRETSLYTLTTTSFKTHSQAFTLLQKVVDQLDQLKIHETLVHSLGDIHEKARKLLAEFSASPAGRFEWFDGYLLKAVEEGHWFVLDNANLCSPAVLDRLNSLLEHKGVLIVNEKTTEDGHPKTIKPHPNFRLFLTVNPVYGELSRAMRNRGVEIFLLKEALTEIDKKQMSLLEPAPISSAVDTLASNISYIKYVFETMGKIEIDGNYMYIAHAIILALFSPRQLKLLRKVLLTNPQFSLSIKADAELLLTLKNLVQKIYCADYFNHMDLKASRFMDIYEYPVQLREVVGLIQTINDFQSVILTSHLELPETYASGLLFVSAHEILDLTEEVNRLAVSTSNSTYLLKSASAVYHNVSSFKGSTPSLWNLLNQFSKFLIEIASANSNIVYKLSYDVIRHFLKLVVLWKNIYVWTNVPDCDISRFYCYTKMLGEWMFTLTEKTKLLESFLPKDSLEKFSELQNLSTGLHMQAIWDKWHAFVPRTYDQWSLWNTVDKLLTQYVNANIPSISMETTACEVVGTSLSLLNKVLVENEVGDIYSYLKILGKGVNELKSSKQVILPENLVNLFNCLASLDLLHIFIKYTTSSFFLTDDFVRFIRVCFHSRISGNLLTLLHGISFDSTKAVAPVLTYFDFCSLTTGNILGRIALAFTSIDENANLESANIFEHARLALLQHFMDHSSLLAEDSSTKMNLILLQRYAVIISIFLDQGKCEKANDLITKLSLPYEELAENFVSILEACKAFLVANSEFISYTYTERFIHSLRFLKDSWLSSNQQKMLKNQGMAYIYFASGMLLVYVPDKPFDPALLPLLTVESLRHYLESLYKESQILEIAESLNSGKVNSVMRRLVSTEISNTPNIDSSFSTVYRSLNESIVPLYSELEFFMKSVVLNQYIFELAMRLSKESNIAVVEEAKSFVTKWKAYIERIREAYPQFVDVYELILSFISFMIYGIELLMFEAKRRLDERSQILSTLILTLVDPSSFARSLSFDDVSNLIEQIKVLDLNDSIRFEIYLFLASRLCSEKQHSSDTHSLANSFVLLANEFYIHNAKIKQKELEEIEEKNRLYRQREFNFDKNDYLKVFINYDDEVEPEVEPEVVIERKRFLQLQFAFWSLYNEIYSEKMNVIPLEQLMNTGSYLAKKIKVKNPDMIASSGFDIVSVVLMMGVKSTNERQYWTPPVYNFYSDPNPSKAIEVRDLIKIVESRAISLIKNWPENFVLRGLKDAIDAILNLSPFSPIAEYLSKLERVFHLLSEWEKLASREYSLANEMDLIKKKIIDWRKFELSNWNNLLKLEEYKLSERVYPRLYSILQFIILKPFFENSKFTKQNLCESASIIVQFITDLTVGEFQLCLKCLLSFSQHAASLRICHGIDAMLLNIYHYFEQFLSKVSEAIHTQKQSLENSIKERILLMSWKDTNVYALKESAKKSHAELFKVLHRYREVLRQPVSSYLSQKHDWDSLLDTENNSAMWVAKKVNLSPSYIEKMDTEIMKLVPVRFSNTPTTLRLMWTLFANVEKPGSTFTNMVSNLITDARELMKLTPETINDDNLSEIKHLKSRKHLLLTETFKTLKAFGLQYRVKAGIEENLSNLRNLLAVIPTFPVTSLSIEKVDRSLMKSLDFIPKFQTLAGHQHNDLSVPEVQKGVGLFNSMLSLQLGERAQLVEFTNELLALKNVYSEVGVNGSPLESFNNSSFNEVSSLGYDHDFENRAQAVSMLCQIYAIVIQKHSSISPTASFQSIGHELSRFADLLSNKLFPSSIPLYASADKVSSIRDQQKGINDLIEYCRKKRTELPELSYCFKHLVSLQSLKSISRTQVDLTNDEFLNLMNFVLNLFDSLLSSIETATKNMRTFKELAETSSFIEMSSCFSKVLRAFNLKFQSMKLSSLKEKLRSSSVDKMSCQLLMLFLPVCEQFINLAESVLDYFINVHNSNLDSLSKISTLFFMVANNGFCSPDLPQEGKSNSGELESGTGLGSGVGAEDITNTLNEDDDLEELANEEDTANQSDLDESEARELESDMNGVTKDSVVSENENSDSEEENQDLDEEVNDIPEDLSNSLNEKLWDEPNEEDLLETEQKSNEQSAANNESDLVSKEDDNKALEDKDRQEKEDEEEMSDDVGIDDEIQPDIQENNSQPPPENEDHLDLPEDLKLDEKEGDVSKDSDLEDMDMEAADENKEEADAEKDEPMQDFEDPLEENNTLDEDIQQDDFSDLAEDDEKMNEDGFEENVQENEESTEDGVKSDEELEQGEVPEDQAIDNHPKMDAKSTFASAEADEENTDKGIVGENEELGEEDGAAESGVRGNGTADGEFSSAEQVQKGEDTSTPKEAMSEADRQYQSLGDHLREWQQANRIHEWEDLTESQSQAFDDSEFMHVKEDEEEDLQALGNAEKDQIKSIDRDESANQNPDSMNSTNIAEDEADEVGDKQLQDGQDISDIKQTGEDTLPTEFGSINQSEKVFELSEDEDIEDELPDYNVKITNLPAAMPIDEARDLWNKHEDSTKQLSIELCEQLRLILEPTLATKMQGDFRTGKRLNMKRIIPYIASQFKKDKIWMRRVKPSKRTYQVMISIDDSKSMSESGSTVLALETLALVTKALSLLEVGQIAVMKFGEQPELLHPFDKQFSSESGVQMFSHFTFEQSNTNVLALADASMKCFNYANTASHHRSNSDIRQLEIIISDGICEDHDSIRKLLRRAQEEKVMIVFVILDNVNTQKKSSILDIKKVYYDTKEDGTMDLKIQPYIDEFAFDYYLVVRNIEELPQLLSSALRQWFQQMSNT

These are yes or no findings as the source states them, for the method shown. In cells and extracts the contact can be indirect. Here binding means that the protein was enriched with, or labelled near, the bait; the list need not be complete. Sequences can lack the tags named with a protein.

This test addresses T1, Rix1-5FLAG (S. pombe) (UniProt P87243).
T1 sequence: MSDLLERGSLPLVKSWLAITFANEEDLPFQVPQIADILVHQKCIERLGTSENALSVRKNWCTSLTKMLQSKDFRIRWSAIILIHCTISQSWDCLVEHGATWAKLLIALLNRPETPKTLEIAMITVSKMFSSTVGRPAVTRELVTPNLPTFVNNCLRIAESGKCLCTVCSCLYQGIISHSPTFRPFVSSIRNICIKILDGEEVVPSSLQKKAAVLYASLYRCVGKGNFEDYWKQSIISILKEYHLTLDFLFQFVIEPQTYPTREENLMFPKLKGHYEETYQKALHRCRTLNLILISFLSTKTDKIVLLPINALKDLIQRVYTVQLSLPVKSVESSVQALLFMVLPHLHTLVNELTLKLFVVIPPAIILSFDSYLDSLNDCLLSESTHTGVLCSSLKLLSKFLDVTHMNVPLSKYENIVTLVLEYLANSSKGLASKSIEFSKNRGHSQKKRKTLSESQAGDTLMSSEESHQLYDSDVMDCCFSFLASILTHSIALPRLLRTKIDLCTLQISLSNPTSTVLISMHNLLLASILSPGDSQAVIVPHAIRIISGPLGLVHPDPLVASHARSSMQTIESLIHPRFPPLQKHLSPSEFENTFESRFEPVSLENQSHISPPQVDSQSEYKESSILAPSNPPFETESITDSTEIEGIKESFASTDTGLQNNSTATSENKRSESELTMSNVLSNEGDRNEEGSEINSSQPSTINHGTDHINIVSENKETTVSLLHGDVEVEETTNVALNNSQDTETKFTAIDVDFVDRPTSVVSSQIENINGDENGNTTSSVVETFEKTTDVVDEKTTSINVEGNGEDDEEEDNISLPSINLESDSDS
Kind of test: affinity purification with mass spectrometry; Rix1-5FLAG or Nsa1-5FLAG immunoprecipitated with anti-FLAG antibody from S. pombe whole cell extracts (with or without 1 uM Rbin-1, 30 min, 29°C in Figure S7B); SDS-PAGE with Coomassie or ORIOLE staining; bands identified by mass spectrometry.

With “Mdn1 (Midasin), S. pombe (from UniProt O94248 1-4717)”, the binding entry is given as “binds”.
